The other results are listed elsewhere or left out. Repeats in this data set agree poorly, so a single value says little.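 Human kidney-derived cells stably carry a construct in which eight TEAD-binding elements drive luciferase, measured by luminescence in a drug-repurposing library screen. A hit is any compound whose signal exceeds the plate mean by more than five robust Z scores.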
System: HEK293A TEAD-LUC reporter
Test: TEAD-luciferase reporter activity (YAP activation), robust Z score vs plate; higher = stronger YAP/TEAD activation
Settings: 24 h

Structure (SMILES) | TEAD-luciferase reporter activity (compound concentration: 200 nM) | TEAD-luciferase reporter activity (compound concentration: 2 uM) | TEAD-luciferase reporter activity (compound concentration: 10 uM)
CC(C)(C)CC(C)(C)c1ccc(O)cc1 | inactive: -0.501 | inactive: -0.419 | inactive: 3.55
CC1(C)[C@H](C=C(Cl)Cl)[C@H]1C(=O)OCc1c(F)c(F)c(F)c(F)c1F [Fenfluthrin] | inactive: 1.2 | inactive: 1.21 | inactive: 0.386
CCN1CCCC1CNC(=O)C(O)(c1ccccc1)c1ccccc1 (stereo not drawn) | inactive: -1.34 | inactive: -0.285 | inactive: -0.265
CN1C(=O)NC(=O)C(C)(C2=CCCCC2)C1=O (stereo not drawn) | inactive: -0.104 | inactive: 1.11 | inactive: 1.55
C=CCN1C[C@H](C)N([C@@H](c2cccc(O)c2)c2cccc(C(=O)N(C)c3cccc(F)c3)c2)C[C@H]1C | inactive: -0.617 | inactive: -0.252 | inactive: 0.938
CS(=O)(=O)NCCN1C(=O)NCC12CCN1CCc3c(oc4ccccc34)C1C2 (stereo not drawn) | inactive: 0.112 | inactive: -1.31 | inactive: -1.21
CN(CC1CCCCC1)C1CCc2ccccc2C1 (stereo not drawn) | inactive: -0.724 | – | inactive: 1.98
Cc1nc2cc(NC(=O)c3cc4ccncc4n3Cc3cccc(F)c3)ccc2n1C | inactive: 0.797 | inactive: 1.06 | inactive: 3.69
CCC(O)(COC(N)=O)c1ccccc1 (stereo not drawn) | inactive: -0.498 | inactive: -0.571 | inactive: -0.36
CO[C@]12C[C@@H](COC(=O)c3cncc(Br)c3)CN(C)[C@@H]1Cc1cn(C)c3cccc2c13 [nicergoline SR] | – | inactive: 0.506 | –
CO[C@]12C[C@@H](COC(=O)c3cncc(Br)c3)CN(C)[C@@H]1Cc1cn(C)c3cccc2c13 [nicergoline SR, Ethypharm] | inactive: 2.39 | – | inactive: 0.704
CN1C(=O)N(C)C2C1N(C)C(=O)N2C (stereo not drawn) [Mebicar] | inactive: -1.67 | inactive: 0.187 | inactive: -0.584
CCCc1cc2c(s1)CN[C@H]1CCc3cc(O)c(O)cc3[C@H]21 | inactive: 1.78 | inactive: 0.792 | inactive: 0.719
CCC(COC(=O)c1cc(OC)c(OC)c(OC)c1)(c1ccccc1)N(C)C (stereo not drawn) [trimebutine, Ahn-Gook Pharmaceutical] | – | inactive: -1.36 | –
CCC(COC(=O)c1cc(OC)c(OC)c(OC)c1)(c1ccccc1)N(C)C (stereo not drawn) | inactive: 0.209 | – | inactive: 0.653
CCCN1CCC[C@@H](c2cccc(O)c2)C1 | – | inactive: -1.38 | –
CCCN1CCC[C@@H](c2cccc(O)c2)C1 [(-)-3PPP, Maryland] | inactive: -0.791 | – | inactive: -0.364
C[C@]12O[C@H](C[C@]1(O)CO)n1c3ccccc3c3c4c(c5c6ccccc6n2c5c31)CNC4=O [Lestaurtinib] | inactive: 4.33 | – | inactive: -1.62
C[C@]12O[C@H](C[C@]1(O)CO)n1c3ccccc3c3c4c(c5c6ccccc6n2c5c31)CNC4=O [lestaurtinib] | – | inactive: 0.972 | –
O=C1NC(=S)NC(=O)C12CC=CCC2 | inactive: -1.75 | inactive: 0.176 | inactive: -0.0765
CC(C)c1ccccc1OCC1=NCCN1 | inactive: -1.26 | inactive: 0.947 | inactive: -0.733

Structure (SMILES) | TEAD-luciferase reporter activity (compound concentration: 200 nM) | TEAD-luciferase reporter activity (compound concentration: 2 uM) | TEAD-luciferase reporter activity (compound concentration: 10 uM)
CN1C2CCC1CC(OC(c1ccccc1)c1ccc(Cl)cc1)C2 (stereo not drawn) | inactive: 2.18 | inactive: -0.769 | inactive: 3.47
O=P1(NCCCl)OCCCN1CCCl (stereo not drawn) [ifosfamide] | inactive: -0.485 | – | inactive: 1.71
Cc1c(N(C)C)ccc(Br)c1N=C1NCCN1 | inactive: -2.16 | inactive: 1.07 | active: 6.69
COc1ccc(OC)c(C(O)C(C)N)c1 (stereo not drawn) [methoxamine gel] | – | inactive: -2.53 | –
COc1ccc(OC)c(C(O)C(C)N)c1 (stereo not drawn) [methoxamine gel, Norgine] | inactive: -0.38 | – | inactive: -0.572
CS(=O)(=O)Nc1nc(CN2CCC(c3c[nH]c4ccccc34)CC2)cs1 | inactive: -1.65 | inactive: -0.663 | active: 7.85
O=C1CCO1 | inactive: -1.51 | inactive: 0.126 | inactive: -0.304
CCN1CCOC2Cc3c(SC)ccc(OC)c3CC21 (stereo not drawn) | inactive: -0.536 | inactive: 0.91 | inactive: -0.585
CCCN(CCC)[C@@H]1CCc2ccc3[nH]c(C#N)cc3c2C1 | inactive: -0.427 | inactive: 0.0471 | inactive: 1.92
CNC(=O)ON(C(C)=O)C(=O)NC [Caracemide] | inactive: 1.78 | inactive: -1.77 | inactive: -1.68
CN1CCC(N(Cc2ccccc2)c2ccccc2)CC1 | inactive: -1.05 | inactive: -0.0928 | inactive: -1.47
COc1ccc2[nH]cc(CCN(C(C)C)C(C)C)c2c1 | inactive: 1.17 | inactive: 4.41 | active: 19.2
CNCCc1ccc(O)c(O)c1 [Epinine] | inactive: 2.42 | inactive: 0.0245 | inactive: -0.75
C[C@]12C=CC(=O)C(N)=C1C=C[C@@H]1[C@@H]2CC[C@]2(C)C(=O)CC[C@@H]12 | inactive: -1.29 | inactive: -0.991 | inactive: 1.17
COc1cc2c(cc1O)C(CCc1ccc(Cl)cc1)N(C)CC2 (stereo not drawn) | inactive: -0.943 | inactive: -1.01 | inactive: 1.64
C[C@]12CCC(=O)C=C1CCC1C2CC[C@@]2(C)C1CC[C@@H]2OC(O)C(Cl)(Cl)Cl (stereo partly drawn) | inactive: -1.61 | inactive: -0.728 | inactive: 0.672
CCCN1CCO[C@H]2c3cc(O)ccc3OC[C@H]21 | inactive: -1.6 | inactive: -1.43 | inactive: -1.06
CC(C)[N+](C)(CCC(C(N)=O)(c1ccccc1)c1ccccc1)C(C)C | inactive: -1 | – | inactive: -0.00528
CC(C)[N+](C)(CCC(C(N)=O)(c1ccccc1)c1ccccc1)C(C)C [Isopropamide iodide] | – | inactive: -0.223 | –
CS(=O)(=O)CS(=O)(=O)OCCCl [Clomesone] | inactive: -0.399 | inactive: -1.24 | inactive: -0.884

Record cards, from the list above. Order of values: TEAD-luciferase reporter activity (compound concentration: 200 nM) | TEAD-luciferase reporter activity (compound concentration: 2 uM) | TEAD-luciferase reporter activity (compound concentration: 10 uM)
CCCN(CCC)[C@@H]1CCc2ccc3[nH]c(C#N)cc3c2C1 is listed as inactive: -0.427 | inactive: 0.0471 | inactive: 1.92
O=C1NC(=S)NC(=O)C12CC=CCC2 is listed as inactive: -1.75 | inactive: 0.176 | inactive: -0.0765

Reference: the supplement of paper PMC10735217
